Experimental findings from article PMC4081104 are described below.

Protein sequences, listed by entry. Tags and fused reporters are not part of them. Lines headed by an entry give the natural chain unless they say otherwise; changes in a name come on top. Residues count along the entry.
UniProt Q12834: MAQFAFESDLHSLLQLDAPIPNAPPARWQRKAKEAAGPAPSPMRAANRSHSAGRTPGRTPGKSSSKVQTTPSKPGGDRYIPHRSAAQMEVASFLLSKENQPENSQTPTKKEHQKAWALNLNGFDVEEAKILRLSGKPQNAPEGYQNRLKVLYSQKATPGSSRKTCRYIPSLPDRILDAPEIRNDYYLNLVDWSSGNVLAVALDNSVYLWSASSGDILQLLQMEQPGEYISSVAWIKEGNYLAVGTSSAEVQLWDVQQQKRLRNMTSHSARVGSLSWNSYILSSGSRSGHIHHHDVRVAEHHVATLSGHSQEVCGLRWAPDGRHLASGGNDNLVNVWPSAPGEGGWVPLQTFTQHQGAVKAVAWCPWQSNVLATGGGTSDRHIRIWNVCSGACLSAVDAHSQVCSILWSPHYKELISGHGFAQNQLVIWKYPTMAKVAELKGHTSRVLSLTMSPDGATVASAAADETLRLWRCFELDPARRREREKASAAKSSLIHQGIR
UniProt O95793: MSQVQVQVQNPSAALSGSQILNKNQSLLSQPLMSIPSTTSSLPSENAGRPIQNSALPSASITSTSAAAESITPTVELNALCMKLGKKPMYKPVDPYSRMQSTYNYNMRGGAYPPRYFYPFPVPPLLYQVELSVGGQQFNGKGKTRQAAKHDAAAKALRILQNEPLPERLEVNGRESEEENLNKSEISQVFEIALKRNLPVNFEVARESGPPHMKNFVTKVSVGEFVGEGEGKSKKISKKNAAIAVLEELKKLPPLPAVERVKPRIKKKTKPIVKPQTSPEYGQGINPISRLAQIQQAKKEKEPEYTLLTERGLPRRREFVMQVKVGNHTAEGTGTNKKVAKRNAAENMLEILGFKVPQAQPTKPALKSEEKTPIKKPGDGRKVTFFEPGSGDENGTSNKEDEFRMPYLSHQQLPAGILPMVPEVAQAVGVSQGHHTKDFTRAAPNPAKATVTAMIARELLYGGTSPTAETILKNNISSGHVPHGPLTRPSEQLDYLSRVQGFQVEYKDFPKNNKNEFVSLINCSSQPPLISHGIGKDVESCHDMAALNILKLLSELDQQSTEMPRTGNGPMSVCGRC
Staufen1, 55 kDa isoform (Stau1^55), endogenous: residues 82-577 of O95793
Stau1^Δ2-FLAG: residues 170-577 of O95793
UniProt Q9UM11: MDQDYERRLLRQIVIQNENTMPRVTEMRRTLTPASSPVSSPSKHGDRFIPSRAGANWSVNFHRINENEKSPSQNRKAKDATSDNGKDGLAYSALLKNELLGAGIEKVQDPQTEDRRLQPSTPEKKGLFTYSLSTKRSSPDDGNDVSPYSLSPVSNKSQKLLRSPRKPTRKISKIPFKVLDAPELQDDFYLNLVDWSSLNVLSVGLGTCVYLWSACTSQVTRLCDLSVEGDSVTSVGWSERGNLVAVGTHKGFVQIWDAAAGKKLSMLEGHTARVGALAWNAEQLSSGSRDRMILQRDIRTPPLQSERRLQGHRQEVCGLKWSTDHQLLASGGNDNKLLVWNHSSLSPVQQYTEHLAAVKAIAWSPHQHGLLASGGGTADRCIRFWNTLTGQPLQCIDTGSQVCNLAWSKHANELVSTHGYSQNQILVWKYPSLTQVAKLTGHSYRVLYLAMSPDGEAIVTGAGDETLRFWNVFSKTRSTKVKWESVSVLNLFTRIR

No constants are given. Whether binding was seen depends on the method and setting. Binding seen in cells or lysates may run through a third protein. Some binding calls cover weakened binding; strength is not graded here.

Experiment [1] deals with FLAG-Cdc20 (UniProt Q12834). As to the kind of experiment: co-IP; HEK293T cells co-transfected with HA-Cdh1 or HA-Cdc20 and a FLAG-tagged protein; FLAG-tagged proteins immunoprecipitated with anti-FLAG antibody, co-purified proteins detected with anti-HA antibody by western blotting.
The target of the next experiment is Stau1^Δ2-FLAG (UniProt O95793). The experiment is described as above.
The target of another experiment is Stau1^55-FLAG (UniProt O95793). Described as above.
For experiment [2], the target named is FLAG-Cdc20 (UniProt Q12834). Kind of experiment: co-IP; HEK293T cells transfected with FLAG-Cdh1, FLAG-Cdc20 or FLAG-YFP; FLAG-tagged proteins immunoprecipitated with anti-FLAG M2 affinity gel from cleared lysates (50 mM Tris-Cl pH 7.4, 150 mM NaCl, 2 mM MgCl2, 1% Triton X-100), eluted with FLAG peptide; co-purified endogenous Stau1 detected with anti-Stau1 antibody by western blotting.

For HA-Cdh1 (from UniProt Q9UM11 1-496), the binding result with FLAG-Cdc20 [1] is given as “binds”; with Stau1^Δ2-FLAG it was “no binding”.

HA-Cdc20 (from UniProt Q12834 1-499): the values for the binding result with Stau1^55-FLAG and with Stau1^Δ2-FLAG were “binds” and “no binding”, respectively.

“Staufen1, 55 kDa isoform (Stau1^55), endogenous (from UniProt O95793-2 1-496)”: the binding entry with FLAG-Cdc20 [2] is recorded as “binds”.
